PubChem BioAssay AID2685 (National Center for Advancing Translational Sciences (NCATS), 2010)
Hit rate of the full screen: of about 320,000 compounds, about 2,100 (0.66%) were called active. The inconclusive results got no clear call from the source; some entries with a clear call stand among them for comparison. Calls follow the shape of the dose curve; as a rule, active = well fitted inhibition curve with a large enough effect in the signal ratio, with a control signal flat (not every such curve was filed as active); inconclusive = small, poorly fitted or top-dose-only effect, or effect the other way, or a change in a side signal; inactive = flat fitted curve, though single readings scatter; the % refers to the signal ratio. Potencies beside an inconclusive call are fits to weak or partial responses and may not hold up.

test: qHTS Assay for Lipid Storage Modulators in Drosophila S3 Cells; conditions: BODIPY lipid droplet fluorescence, 18-24 h, cells fed with added oleic acid; lipid storage change, negative = inhibition: at 46.1 µM (top of the series) unless noted
How it was run: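 Laser-scanning cytometry quantifies lipid droplet accumulation (500–530 nm total intensity; droplet/cell object ratio) in oleic acid-fed (400 uM added) Drosophila S3 cells treated with a concentration series. 20 uM Triacsin C defined 100% inhibition.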
% is scaled to controls: 0 for no effect and ±100 for the full control effect; potency is read from the fitted curve at half-maximal effect.

Row | SMILES | lipid storage change, negative = inhibition | Potency
1 | CC(C)(C)NC(=O)C(c1cccnc1)N(C(=O)c1ccc(Cl)nc1)C1CCCC1 (centres undefined) | inconclusive: -28.5% | 
2 | COC(=O)c1ccccc1NC(=O)CSc1nnc(-c2cccc(NC(C)=O)c2)n1C |  | inconclusive: 0.731 µM [activator, partial curve]
3 | CC(c1ccccc1)C1CC(=O)N(C2CCCCC2)C1=O (centres undefined) |  | inconclusive: 6.51 µM [falling, single point]
4 | COCCNC(=O)COc1ccc(C)cc1C(=O)c1cc(C#N)c(=O)n(C2CC2)c1 | inconclusive: -13.3% | 
5 | Cn1c2ccccc2c(=O)c2ccc(C#CC3(O)CCCCC3)cc21 |  | inconclusive: 8.2 µM [falling, partial curve, poor fit]
6 | Cc1noc(C)c1COc1ccc(C(=O)OCC(=O)N2CC(=O)Nc3ccccc32)cc1 | inconclusive: 1.64% | 
7 | COc1ccccc1CNC(=O)COC(=O)c1sc(C)nc1C |  | inconclusive: 4.11 µM [activator, single point]
8 | CC(C)C(NC(=O)c1ccc(C(C)(C)C)cc1)C(=O)Nc1cccc(S(N)(=O)=O)c1 (centres undefined) | inconclusive: -3.26% | 
9 | Cc1ccccc1C(=O)N1CCC(C(=O)Oc2ccc(C#N)cc2)CC1 | inconclusive: -9.55% | 
10 | O=C(CN1CCCCCC1)N1c2ccccc2C=Cc2ccccc21 |  | active: 23.1 µM
11 | Cc1c(OCC(=O)N2CCN(c3ccccc3)CC2)ccc2c3c(c(=O)oc12)CCCC3 |  | inconclusive: 6.51 µM [falling, single point]
12 | CCOC(=O)NC1(C(F)(F)F)C(=O)NC(C)=C1C(=O)OC (centres undefined) | inconclusive: -1.88% | 
13 | Cc1ccc(NC(=O)Nc2ccc(F)cc2)nc1 | inconclusive: -5.14% | 
14 | COc1cc(C(NC(C)=O)NC(C)=O)ccc1OCc1ccccc1 | inconclusive: -34.6% | 
15 | CCOc1ccc(C(C)=O)cc1CSc1nnc(-c2ccoc2C)n1N |  | inconclusive: 29.1 µM [activator, partial curve, poor fit]
16 | Cc1ccc(C(=O)NCCN2CCNC2=O)cc1 | inconclusive: -0.075% | 
17 | CC(C)(CC(=O)O)CC(=O)O |  | inconclusive: 3.66 µM [activator, partial curve]
18 | COc1ccc(OC)c(NC(=S)N2c3ccccc3CC2C)c1 (centres undefined) |  | inconclusive: 23.1 µM [falling, single point]
19 | O=C(NCCCO)NC12CC3CC(CC(C3)C1)C2 |  | inconclusive: 29.1 µM [falling, single point]
20 | O=C(Cn1cc(C(=O)c2cccs2)c2ccccc21)NCc1ccc2c(c1)OCO2 | inconclusive: -3.14% | 
21 | CSc1nc2nc3c(cc2c(=O)n1-c1ccccc1C)CCCC3 | inconclusive: -14.7% | 
22 | N/C(=N\OC(=O)CCc1ccccc1)c1ccc(Cl)cc1 |  | inconclusive: 18.4 µM [falling, single point]
23 | Cc1ccc(C(=O)N/N=C\C2CC=CCC2)cc1[N+](=O)[O-] (centres undefined) | inconclusive: 55.1% | 
24 | CCCOc1ccc(C(=O)NCC(C)(C)N2CCOCC2)cc1 | inconclusive: -57.4% | 
25 | CSc1ccc(CN(C)CC(=O)NC(=O)NCCC2=CCCCC2)cc1 |  | inconclusive: 29.1 µM [falling, single point]

Copied from the list.
Potency with Cn1c2ccccc2c(=O)c2ccc(C#CC3(O)CCCCC3)cc21 reads inconclusive: 8.2 µM [falling, partial curve, poor fit]
lipid storage change, negative = inhibition with COCCNC(=O)COc1ccc(C)cc1C(=O)c1cc(C#N)c(=O)n(C2CC2)c1 reads inconclusive: -13.3%

Additional entries follow.

Row | SMILES | lipid storage change, negative = inhibition | Potency
26 | COc1ccc(CCn2c(C)cc(C(=O)COC(=O)c3cnc(C)cn3)c2C)cc1 | inconclusive: 51.9% [activator] [at 0.0737 µM] | 
27 | C/C(=N\NC(=S)Nc1c(C)cccc1C)c1ccc(O)cc1 | inconclusive: -16.9% | 
28 | COc1cccc(NC(=O)CS(=O)(=O)c2cccc3nsnc23)c1 | inconclusive: 256% | 
29 | Cc1cc(C)n2nc(C(=O)N/N=C/c3cccs3)nc2n1 | inconclusive: -35.7% | 
30 | O=C(c1cc(=O)[nH]c2ccccc12)N1CCc2ccccc2C1 | inconclusive: 94% | 
31 | N#C/C(=C\c1ccc(/C=C(/C#N)c2nn(CCO)c(N)c2C#N)cc1)c1nn(CCO)c(N)c1C#N |  | inconclusive: 0.082 µM [falling, full curve, poor fit]
32 | O=C(N/N=C/c1ccc([N+](=O)[O-])o1)c1sc2ccccc2c1Cl |  | inconclusive: 29.1 µM [falling, single point]
33 | Cn1cnnc1SC1CCCCC1NS(=O)(=O)c1ccccc1 (centres undefined) | inconclusive: 12.3% | 
34 | CCCc1cc2c(=O)n(NC(=O)c3nn(C)cc3[N+](=O)[O-])c(C)nc2s1 |  | inconclusive: 0.058 µM [falling, full curve, poor fit]
35 | COc1ccc(CC(=O)OCC(=O)NCCNC(=O)COC(=O)Cc2ccc(OC)cc2)cc1 | inconclusive | 
36 | CNc1cc(F)nc(F)n1 | inconclusive: -6.95% | 
37 | S=C(NCc1ccc(Cl)cc1)NC12CC3CC(CC(C3)C1)C2 | inconclusive: -27.4% | 
38 | COc1cc2oc(=O)ccc2cc1[C@@H](O)[C@@H]1OC(C)(C)OC1(C)C |  | inconclusive: 29.1 µM [activator, single point]
39 | O=C(NCCc1ccc(F)cc1)c1ccc(S(=O)(=O)N2CCCCC2)cc1 |  | inconclusive: 5.17 µM [activator, partial curve]
40 | CCOC(=O)Cc1csc(NS(=O)(=O)c2ccc(C(F)(F)F)cc2)n1 | inactive: 8.18% | 
41 | FC(F)Oc1ccccc1C1CC(c2ccc(Br)s2)Nc2ncnn21 (centres undefined) |  | inconclusive: 0.146 µM [activator, full curve, poor fit]
42 | O=C(NC(=S)Nc1nc(-c2ccc([N+](=O)[O-])cc2)cs1)c1ccco1 |  | inconclusive: 5.17 µM [falling, single point]
43 | CN(C(=O)COC(=O)C(C)(C)Oc1ccc(Cl)cc1)c1c(N)n(Cc2ccccc2)c(=O)[nH]c1=O |  | inconclusive: 29.1 µM [cytotoxic, single point]
44 | Cc1ccc(CC2CC(=O)N(c3ccc4c(c3)OCCO4)C2=O)cc1 (centres undefined) | inconclusive: 9.83% | 
45 | CCOC(=O)CSc1nnc(CSc2nc3sc4c(c3c(=O)[nH]2)CCC4)n1C |  | inconclusive: 6.51 µM [falling, single point]
46 | Cc1ccc(S(=O)(=O)N2CCC(=O)N(C(CO)Cc3ccccc3)CC2)cc1 (centres undefined) | inconclusive: -15.1% | 
47 | C=CCOn1c(=O)c(-c2ccc(OC)cc2)[n+]([O-])c2ccccc21 | inconclusive: 17.4% | 
48 | Cc1nnc(-c2ccccc2)o1 |  | inconclusive: 29.1 µM [cytotoxic, single point]
49 | NC(=O)CCn1c(C(=O)c2cc(Cl)c(N)c(Cl)c2)c2ccccc2[n+]1[O-] | inconclusive: -55.2% | 
50 | COc1ccccc1N1CCN(C2CCCN(C(=O)c3ccoc3C)C2)CC1 (centres undefined) |  | inconclusive: 6.51 µM [activator, single point]

Row | SMILES | lipid storage change, negative = inhibition | Potency
51 | COc1cccc(C(=O)NNC(=O)/C=C/c2ccccc2)c1 |  | inconclusive: 0.326 µM [activator, full curve, poor fit]
52 | COc1cccc(-c2noc(Cn3nc(C(=O)O)c4ccccc4c3=O)n2)c1 |  | inconclusive: 23.1 µM [falling, partial curve, poor fit]
53 | CCCNC(=S)N1CCC(NC(=O)Nc2ccc(C)cc2)CC1 | inconclusive: 20.5% | 
54 | CCOc1ccc(-c2ccc(SCC(=O)N3CCN(c4ccccc4)CC3)nn2)cc1 | inconclusive: 25.5% | 
55 | Cc1cccc(CCNC(=O)C2CCN(S(=O)(=O)c3c(C)nn(C)c3C)CC2)c1 |  | inconclusive: 9.2 µM [activator, partial curve]
56 | O=C(CN1CCC(NC(=O)c2ccccc2F)CC1)NCc1ccc(F)cc1 |  | active: 20.6 µM
57 | CCn1ncc(C2=NOC(C(=O)Nc3c(C)n(C)n(-c4ccccc4)c3=O)C2)c1C (centres undefined) | inconclusive: 9.29% [at 9.22 µM] | 
58 | O=C1CCCC2(O)C1C(c1cccc(Br)c1)NC(=O)N2Cc1ccccc1 (centres undefined) | inactive: -9.4% | 
59 | COc1ccccc1/C=C/C(=O)Nc1ccc(N2CCOCC2)cc1 | inconclusive: -5.13% | 
60 | COC(=O)c1ccc(N=NNc2ccccc2)cc1 | inconclusive: 1.89% | 
61 | CCN=C1SC(C(=O)Nc2ccc(OC)cc2)CC(=O)N1CC (centres undefined) | inconclusive: -6.49% | 
62 | COc1ccc(NC(=O)CN(C)C(=O)CCNS(=O)(=O)c2ccc(Br)cc2)cc1 | inconclusive: 43.9% | 
63 | Cc1ccc(NC(=O)COC(=O)CCc2c(C)nc3nc(N)nn3c2C)cc1C | inconclusive: 24% | 
64 | O=C(NC1CCCC1)c1cc(-c2ccc(Cl)cc2Cl)on1 |  | inconclusive: 2.91 µM [falling, single point]
65 | O=C(COC(=O)Cn1cnc2ccccc2c1=O)NCc1ccccc1 | inconclusive: 0.187% | 
66 | COc1ccccc1OCC(=O)NNC(=O)CSC(=S)N1CCCC1 | inconclusive: 8.87% | 
67 | COc1ccc(NC(=O)C2CCN(C(=O)C3CC(=O)N(c4ccc(C)cc4)C3)CC2)cc1 (centres undefined) |  | inconclusive: 16.4 µM [activator, partial curve, poor fit]
68 | COC(=O)c1cccc(CSc2nc3ccccc3[nH]2)c1 | inconclusive: 23.8% | 
69 | CC(OC(=O)CCCC(=O)Nc1ccc(F)cc1)C(=O)c1ccccc1 (centres undefined) | inconclusive: 22.9% | 
70 | CC(C)CCNC(=O)c1cc2c(s1)-c1ccccc1S(=O)(=O)C2 |  | inconclusive: 0.092 µM [activator, full curve, poor fit]
71 | COc1ccc(NC(=O)c2scc(S(=O)(=O)C(C)C)c2N)cc1 | inconclusive: -13.3% | 
72 | CCC(C)(C)C1CCC2(CC1)NC(=O)N(CC(=O)N1CCN(C(=O)c3ccco3)CC1)C2=O (centres undefined) | inconclusive: 26.7% | 
73 | COc1ccc(S(=O)(=O)N2CCN(c3cccc(C)c3C)CC2)cc1 |  | inconclusive: 4.11 µM [falling, single point]
74 | COc1ccc(C(C(=O)NC2CCCCC2)N(Cc2ccco2)C(=O)c2snc(C(N)=O)c2N)cc1 (centres undefined) |  | inconclusive: 14.6 µM [falling, partial curve]

Random excerpt: 2 records from the list, in no set order.
Row | SMILES | lipid storage change, negative = inhibition | Potency
68 | COC(=O)c1cccc(CSc2nc3ccccc3[nH]2)c1 | inconclusive: 23.8% | 
62 | COc1ccc(NC(=O)CN(C)C(=O)CCNS(=O)(=O)c2ccc(Br)cc2)cc1 | inconclusive: 43.9% | 
